Whole data set: some 33,000 sequences, median “E-score (-0.5 to 0.5)” near -0.0034, cut for the highest 2% near 0.25. The list shows a part of the results.
What follows are sequences tested against T1, Yap3 (UniProt P38749) (assay: PBM E-score (8-mer binding enrichment) (E-score (-0.5 to 0.5)); higher = stronger / more preferred TF binding). Conditions: protein concentration: 100 nM; construct: GST-full length.
T1 sequence: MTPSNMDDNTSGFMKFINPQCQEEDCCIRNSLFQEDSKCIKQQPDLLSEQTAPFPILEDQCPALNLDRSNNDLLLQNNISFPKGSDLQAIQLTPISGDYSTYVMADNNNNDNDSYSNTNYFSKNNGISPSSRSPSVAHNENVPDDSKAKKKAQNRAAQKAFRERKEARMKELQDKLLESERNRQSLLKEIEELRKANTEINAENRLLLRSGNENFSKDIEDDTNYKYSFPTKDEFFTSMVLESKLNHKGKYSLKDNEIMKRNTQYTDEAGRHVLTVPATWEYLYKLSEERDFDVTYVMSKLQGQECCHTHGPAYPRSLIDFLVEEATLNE
In short: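 Yeast transcription factors, full-length or as DNA-binding domains, were expressed with a GST tag using PURExpress in vitro transcription/translation. At about 100-200 nM they were applied to universal all-10-mer Agilent arrays, double-stranded by primer extension on fresh or once-stripped slides. Fluorescent anti-GST detected bound protein, and masliner normalised the scans. E-scores for ungapped eight-base words, pooled with reverse complements, came from the Universal PBM Analysis Suite.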

| Sequence | PBM E-score |
| --- | --- |
| CTCGGCGC | 0.00143 |
| CACGGTGA | 0.0265 |
| GTCATTCA | 0.103 |
| GCAAAACA | 0.132 |
| GTACGTAC | 0.0261 |
| ACCCGTAA | 0.0292 |
| CGCGGGGA | 0.0543 |
| CCCTCGAC | -0.118 |
| AATACTAT | 0.239 |
| CGTCGGCC | -0.0998 |
| GAGCCTTA | -0.0398 |
| GACTTGGC | -0.224 |
| ATGACAAG | -0.0324 |
| GTCTGCTA | 0.0968 |
| CCCCCTCG | -0.356 |
| CAAGACCA | -0.212 |
| AAGGAGGC | -0.179 |
| ATAGAATA | 0.203 |
| CATGACGC | 0.0683 |
| ACTTCTGC | 0.0493 |
| ATTATGGG | 0.0706 |
| CCTGTGTA | 0.133 |
| CTGCAACA | 0.0395 |
| ATCTATCA | 0.0468 |
| AAGATATA | 0.175 |

| Sequence | PBM E-score |
| --- | --- |
| AGAGATAC | 0.0854 |
| AGAGCAAA | -0.104 |
| CCAAGAGG | -0.219 |
| CAGGAGAG | -0.122 |
| AGGGTGTC | -0.112 |
| GACATGTC | -0.0418 |
| ATTATCTA | 0.241 |
| AAAAAACA | 0.315 |
| ACCCGGAC | -0.329 |
| GTTATGCA | 0.0493 |
| GGCTACCC | -0.312 |
| GGATCCGA | -0.141 |
| ATCATACC | 0.232 |
| GAAGGCGA | -0.13 |
| CCCGTGTA | -0.111 |
| ATATACTA | 0.306 |
| CAGAGCGG | -0.0832 |
| CCTGCCTA | -0.114 |
| AGTTGTTG | -0.048 |
| AAGAAACG | 0.0274 |
| TCAGTCGA | 0.147 |
| CCTGAGAA | -0.136 |
| AGAGCTTA | -0.0123 |
| ATCTCATA | -0.0161 |
| CTACCATC | -0.0454 |

| Sequence | PBM E-score |
| --- | --- |
| GAGGCCGC | -0.216 |
| CCCGGAAC | -0.0811 |
| AACTGTAA | 0.219 |
| GCTGCACC | -0.228 |
| CGCATTAC | 0.121 |
| CGGGCTTA | -0.028 |
| ACCTCATC | -0.0769 |
| CGGACCCG | -0.139 |
| AGTATATC | 0.0292 |
| ATGTAGGA | -0.138 |
| ATCGACAT | 0.0988 |
| CGGTTTTC | 0.0443 |
| CGTAACTA | 0.129 |
| AAAAGAGC | 0.0797 |
| CGTTCGGC | -0.0105 |
| CACTGAAA | 0.0595 |
| GACCGTAC | -0.195 |
| ATGTCCAC | -0.0741 |
| ATCCTATA | 0.26 |
| GTGGGACA | -0.0961 |
| CAAGTCCC | -0.284 |
| ACGTCACC | 0.0166 |
| CGATAATC | 0.0223 |
| AGCGGGTG | -0.202 |
| GCAAGGGA | -0.126 |

| Sequence | PBM E-score |
| --- | --- |
| ACCTTCAC | 0.00082 |
| ATATTATC | 0.149 |
| GATTACAC | 0.113 |
| CTAGGCCC | -0.284 |
| AGTCGCTA | -0.158 |
| CATAGCCA | 0.0605 |
| AGCGAGCA | -0.0316 |
| GTCGCCTA | -0.114 |
| CGAGCCAA | 0.105 |
| CCACGGAC | -0.304 |
| AAATCAAC | 0.121 |
| CTCGCTCC | -0.0424 |
| ACACCAGG | -0.237 |
| AGGTATTC | 0.116 |
| AATACGCA | 0.112 |
| ACGCGGGC | -0.0455 |
| GCAGTTAC | 0.177 |
| CATTATAG | 0.02 |
| CACTCTAA | 0.0283 |
| GGGAATTA | 0.216 |
| GACGCCTC | 0.0387 |
| ACCGTTAC | 0.0653 |
| AAGAAGGC | -0.171 |
| CGTAGCTC | 0.154 |
| CATTTAAG | 0.0358 |

| Sequence | PBM E-score |
| --- | --- |
| GTAAAGAA | 0.153 |
| CGAATGAC | 0.222 |
| CCTCATCA | 0.0365 |
| TCGATTCA | 0.152 |
| CCCACGCC | -0.256 |
| ATACGAAT | 0.0837 |
| GTTACAGA | -0.0601 |
| ATCTCTCG | -0.0155 |
| GACCTTGC | -0.191 |
| AAGTTTAT | 0.172 |
| AGGTGCAC | 0.0822 |
| GCATAGCA | -0.0494 |
| AATATAGA | 0.191 |
| AAACTCCT | -0.324 |
| ACAGAAAA | 0.198 |
| AGATCATA | 0.203 |
| CCGCAAGA | -0.0321 |
| AAAGGCAA | 0.254 |
| ATTCGCAA | 0.171 |
| CACTACTA | 0.0953 |
| CACCCATG | -0.014 |
| GTATCCCA | -0.0472 |
| GGGGTCTA | -0.117 |
| AACTGTTA | 0.223 |
| CCTGCGTA | -0.194 |

A few values from above:
Value of GCTGCACC under PBM E-score: -0.228
Value of GACTTGGC under PBM E-score: -0.224

(list continues)

| Sequence | PBM E-score |
| --- | --- |
| AAGGTTAT | 0.00255 |
| CAAAGCTG | 0.0236 |
| AACCGAGT | -0.197 |
| ATATGAGC | 0.0205 |
| GGCATACC | -0.0877 |
| CAATAAGC | -0.0566 |
| AGTAGTAC | 0.22 |
| ATGAGACA | 0.0872 |
| GACCGAAC | -0.0488 |
| GCATCGCC | -0.239 |
| AGTGCGTG | 0.0026 |
| ACACGTCG | -0.239 |
| AATGGTTC | 0.062 |
| GAGTGGCC | -0.0813 |
| GGCAAAGA | 0.183 |
| AAGGTAAG | 0.0708 |
| TATGCGCA | -0.00704 |
| CATTTGGC | -0.0439 |
| GTGACTTA | 0.074 |
| ACGCCTGA | -0.0833 |
| ACTTTCCT | 0.0313 |
| CGCAAGCC | 0.0375 |
| GACGGCAA | 0.0761 |
| ATGACTTC | 0.0321 |
| CCCAATTC | 0.249 |

| Sequence | PBM E-score |
| --- | --- |
| AGTAAGGA | 0.244 |
| TCATGGCA | 0.0155 |
| TAACCCAA | 0.199 |
| CGTCGAGC | -0.00084 |
| ACGCGACC | -0.151 |
| CAATCGCG | 0.0859 |
| GGCAGGGA | -0.161 |
| CCTAAGCA | -0.0486 |
| GCGTGACA | -0.016 |
| CTGCTATA | 0.103 |
| ACCATGTC | 0.0148 |
| CGGTTTTA | -0.106 |
| CATTCCCC | -0.0111 |
| CAATCGAG | -0.173 |
| GAAATGCA | 0.189 |
| GCGCTGCC | -0.293 |
| ATCACGGG | -0.0316 |
| AAGCTCTA | 0.0753 |
| CGACGGCA | -0.0914 |
| GACATGAC | -0.0923 |
| GGTAATTA | 0.221 |
| CCGAATTC | 0.14 |
| GGAAGTAA | 0.111 |
| CGCTGGAA | -0.151 |
| GACATTCA | 0.00974 |

| Sequence | PBM E-score |
| --- | --- |
| AGCAGTCC | -0.201 |
| CGCGCTGA | 0.0303 |
| ATAGATAC | 0.173 |
| GTACACGA | 0.0891 |
| CCGTATGA | 0.0641 |
| TTACTGAA | 0.128 |
| GAAAAGAC | 0.166 |
| CGCCTTAC | -0.0859 |
| TCTGCTCA | 0.00765 |
| CAAAAGGG | -0.0725 |
| AGGCCCTG | -0.162 |
| GAAAAAAA | 0.287 |
| CCGGTTTC | -0.00052 |
| CTAAGACA | 0.0522 |
| GACAAATC | 0.175 |
| CTAGACGC | -0.19 |
| CTAAAGAG | 0.00356 |
| AACCCGCG | 0.183 |
| CTAAACAG | -0.00506 |
| CGGTGACA | 0.0776 |
| AACATGTG | 0.192 |
| CATAGCAC | 0.0592 |
| CCCCGACG | -0.0828 |
| CCGTACCA | 0.156 |
| ATTACTTA | 0.257 |

| Sequence | PBM E-score |
| --- | --- |
| CTTATTTC | 0.251 |
| CGTTACCA | 0.145 |
| CCACCGGG | -0.362 |
| CATTTAAA | 0.246 |
| AGGCCAGA | -0.0392 |
| CCGGTTTA | 0.0317 |
| GTCATAAC | 0.0863 |
| CATCACTA | -0.0162 |
| AAAAGTGC | 0.0748 |
| GAATCATA | 0.153 |
| GCACCGAC | 0.00219 |
| GATTTACA | 0.202 |
| AGTTTTTG | 0.224 |
| GGATTAGA | 0.0149 |
| AGATAACG | 0.247 |
| GAAGCTGA | -0.0626 |
| CACTACGA | 0.00399 |
| GCCTCCCA | -0.251 |
| GAACGACA | 0.131 |

Given with each value named: entries from further up
CTTATTTC
  PBM E-score = 0.251
CCGGTTTA
  PBM E-score = 0.0317
GATTTACA
  PBM E-score = 0.202
AGATAACG
  PBM E-score = 0.247
